{"sequences": {"note": "The chains behind the UniProt entries cited, without tags or fusion partners. Where a name states a change or a piece, a line headed by the entry shows the natural chain unless it says otherwise.", "UniProt P09733": "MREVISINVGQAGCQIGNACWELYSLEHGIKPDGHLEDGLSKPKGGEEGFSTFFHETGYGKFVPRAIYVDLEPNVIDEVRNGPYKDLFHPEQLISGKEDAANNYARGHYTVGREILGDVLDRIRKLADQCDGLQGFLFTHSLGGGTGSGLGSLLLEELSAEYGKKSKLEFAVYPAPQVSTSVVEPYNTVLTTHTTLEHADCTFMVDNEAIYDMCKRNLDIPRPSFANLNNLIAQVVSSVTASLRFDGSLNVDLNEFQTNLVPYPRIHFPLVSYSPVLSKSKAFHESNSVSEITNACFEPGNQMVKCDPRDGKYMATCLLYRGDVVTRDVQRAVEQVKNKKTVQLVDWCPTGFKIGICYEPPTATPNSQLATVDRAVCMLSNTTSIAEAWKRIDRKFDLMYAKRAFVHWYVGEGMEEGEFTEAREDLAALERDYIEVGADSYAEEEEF"}, "source": "paper PMC9491610", "key": {"[1]": {"target": "T1, Stu2-K252R-3xHA (S. cerevisiae) (UniProt P46675)", "T1 sequence": "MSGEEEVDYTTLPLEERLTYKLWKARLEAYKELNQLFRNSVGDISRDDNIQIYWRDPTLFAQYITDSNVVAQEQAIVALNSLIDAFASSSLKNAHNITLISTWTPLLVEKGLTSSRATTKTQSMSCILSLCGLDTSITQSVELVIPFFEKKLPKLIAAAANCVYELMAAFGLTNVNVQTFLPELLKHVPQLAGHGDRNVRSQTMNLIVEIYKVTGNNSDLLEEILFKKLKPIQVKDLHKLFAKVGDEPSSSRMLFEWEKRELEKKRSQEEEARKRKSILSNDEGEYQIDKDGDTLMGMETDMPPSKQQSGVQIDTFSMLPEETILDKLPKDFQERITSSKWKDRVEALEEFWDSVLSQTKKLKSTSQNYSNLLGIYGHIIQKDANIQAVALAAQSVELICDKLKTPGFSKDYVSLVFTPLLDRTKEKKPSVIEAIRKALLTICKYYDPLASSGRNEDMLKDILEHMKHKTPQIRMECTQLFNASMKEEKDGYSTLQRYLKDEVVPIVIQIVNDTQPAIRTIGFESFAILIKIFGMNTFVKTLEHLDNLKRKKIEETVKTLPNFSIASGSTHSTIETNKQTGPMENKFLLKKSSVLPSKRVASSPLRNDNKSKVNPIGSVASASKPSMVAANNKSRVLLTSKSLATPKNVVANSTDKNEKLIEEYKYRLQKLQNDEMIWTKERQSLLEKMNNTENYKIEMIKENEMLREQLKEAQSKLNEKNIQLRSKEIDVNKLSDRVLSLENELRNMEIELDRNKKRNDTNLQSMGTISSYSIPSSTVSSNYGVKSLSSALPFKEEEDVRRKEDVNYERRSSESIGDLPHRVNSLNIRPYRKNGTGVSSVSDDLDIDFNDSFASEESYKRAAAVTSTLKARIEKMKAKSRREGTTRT", "experiment": "co-IP; Stu2-HA precipitated with anti-HA magnetic beads from 67 mg cryo-milled yeast extract in PEM buffer (80 mM PIPES, 1 mM EGTA, 1 mM MgCl2, pH 6.8); precipitate blotted with anti α-tubulin (anti-Tub1) as surrogate for αβ-tubulin"}, "[2]": {"target": "T2, Stu2-K870Q-3xHA (S. cerevisiae) (UniProt P46675)", "T2 sequence": "T1 sequence with R252K, K870Q", "experiment": "co-IP; Stu2-HA precipitated with anti-HA magnetic beads from 67 mg cryo-milled yeast extract in PEM buffer (80 mM PIPES, 1 mM EGTA, 1 mM MgCl2, pH 6.8); precipitate blotted with anti α-tubulin (anti-Tub1) as surrogate for αβ-tubulin"}}, "note": "Residue numbers refer to the chain shown, from its start. These are yes or no findings as the source states them, for the method shown. In cells and extracts the contact can be indirect. Some binding calls cover weakened binding; strength is not graded here."}
{"substance": "αβ-tubulin heterodimer (from UniProt P09733 1-447; P02557 1-457) (complex)", "values": [{"measurement": "binding", "setting": "[1]", "value": "binds"}, {"measurement": "binding", "setting": "[2]", "value": "binds"}]}
